This passage reports binding results from PMC4703060.

Sequences of proteins named here, by UniProt entry; tags and fusion partners are left off. A change or cut given only in a name is not applied to a line headed by its entry. Residues count along the entry.
GST-WW1 of human WWP2 (301-333) (O00308, residues 301-333): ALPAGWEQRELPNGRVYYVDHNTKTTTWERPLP
GST-WW2 of human WWP2 (331-363) (O00308, residues 331-363): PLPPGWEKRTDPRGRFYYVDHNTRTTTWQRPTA
GST-WW3 of human WWP2 (406-437) (O00308, residues 406-437): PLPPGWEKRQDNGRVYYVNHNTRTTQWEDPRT
GST-WW4 of human WWP2 (445-477) (O00308, residues 445-477): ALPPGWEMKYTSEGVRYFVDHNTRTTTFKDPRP
UniProt O14641: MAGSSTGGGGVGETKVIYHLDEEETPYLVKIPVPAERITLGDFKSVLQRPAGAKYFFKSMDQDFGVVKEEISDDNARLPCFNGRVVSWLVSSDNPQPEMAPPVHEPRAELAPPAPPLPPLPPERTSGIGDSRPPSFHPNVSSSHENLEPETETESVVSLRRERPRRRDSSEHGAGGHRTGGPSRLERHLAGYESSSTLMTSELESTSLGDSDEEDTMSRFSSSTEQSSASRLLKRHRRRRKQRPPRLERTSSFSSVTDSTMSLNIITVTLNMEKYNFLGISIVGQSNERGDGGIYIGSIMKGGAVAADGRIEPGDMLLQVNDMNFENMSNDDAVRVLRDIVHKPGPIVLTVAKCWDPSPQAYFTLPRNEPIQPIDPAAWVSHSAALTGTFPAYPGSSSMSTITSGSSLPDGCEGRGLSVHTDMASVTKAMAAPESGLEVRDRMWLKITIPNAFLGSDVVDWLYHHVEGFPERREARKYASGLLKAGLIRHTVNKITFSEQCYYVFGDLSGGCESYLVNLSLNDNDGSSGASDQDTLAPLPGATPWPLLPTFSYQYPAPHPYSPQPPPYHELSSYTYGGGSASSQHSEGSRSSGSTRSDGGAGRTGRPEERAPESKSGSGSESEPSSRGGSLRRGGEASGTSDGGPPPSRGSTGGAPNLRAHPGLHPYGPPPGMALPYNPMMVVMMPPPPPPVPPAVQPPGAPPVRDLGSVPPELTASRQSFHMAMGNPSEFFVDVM

The target in test [1] is GST-WW4 of human WWP2 (445-477) (human) (UniProt O00308). The test is described as follows: pull-down; GST-tagged individual WW domains of WWP2 pre-bound to glutathione-sepharose, incubated with 500 µl lysate of transfected HEK293T cells for 1 h at 4°C; washed three times in lysis buffer; Western blot; only the target purified. A general note: In western blotting, separated proteins are transferred to a membrane and probed.

In test [2] the target is GST-WW1 of human WWP2 (301-333) (human) (UniProt O00308). The test is described as above.
In test [3] the target is GST-WW3 of human WWP2 (406-437) (human) (UniProt O00308). The description is as above.
Test [4] addresses GST-WW2 of human WWP2 (331-363) (human) (UniProt O00308). Described as above.
Test [5] deals with human Flag-Dvl2 (wild type) (human) (UniProt O14641). The test is described as follows: co-IP; HEK293ET cells co-transfected with Flag-Dvl2 (wt or mutant) and HA-tagged NEDD4 family ligase; native lysis buffer (20 mM Tris-HCl pH 7.4, 10% glycerol, 200 mM NaCl, 0.2% Triton X-100); Flag-M2 affinity gel for α-Flag IPs, 4°C; Western blot.

No constants are given. Whether binding was seen depends on the method and setting. In cells and extracts the contact can be indirect. For some assays here: Binding can be weak; no strength is given.

In the case of “Flag-Dvl2-PYm (PPxY mutant of Dvl2) (from UniProt O14641)”, the binding result in test [1], in test [2], in test [3] and in test [4] was “no binding” throughout.

On to “HA-NEDD4 (from UniProt P46934-4) (enzyme)”, for which the binding entry in test [5] is on record as “binds weakly”.
